Experimental data reported in paper PMC10397244.
Results are given in words; binding and its absence hold for the method and conditions named. Binding seen in cells or lysates may run through a third protein. Some entries that bind do so weakly or less than the wild type. Tags and fused reporters may be left off the sequences shown.

T1: BIK1-FLAG (Arabidopsis thaliana) (UniProt O48814)
T1 sequence: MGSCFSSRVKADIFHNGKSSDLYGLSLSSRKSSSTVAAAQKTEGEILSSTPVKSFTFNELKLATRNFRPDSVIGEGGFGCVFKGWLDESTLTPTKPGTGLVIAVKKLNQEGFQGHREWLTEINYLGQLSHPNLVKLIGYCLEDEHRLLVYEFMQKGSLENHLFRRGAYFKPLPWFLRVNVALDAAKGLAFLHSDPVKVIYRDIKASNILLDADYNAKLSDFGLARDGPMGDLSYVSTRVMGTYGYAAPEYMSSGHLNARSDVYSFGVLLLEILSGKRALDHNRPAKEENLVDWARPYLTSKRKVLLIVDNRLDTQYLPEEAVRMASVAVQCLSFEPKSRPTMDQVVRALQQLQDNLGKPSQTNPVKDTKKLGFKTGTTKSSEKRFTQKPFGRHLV

T2: BAK1-FLAG (Arabidopsis thaliana) (UniProt Q94F62)
T2 sequence: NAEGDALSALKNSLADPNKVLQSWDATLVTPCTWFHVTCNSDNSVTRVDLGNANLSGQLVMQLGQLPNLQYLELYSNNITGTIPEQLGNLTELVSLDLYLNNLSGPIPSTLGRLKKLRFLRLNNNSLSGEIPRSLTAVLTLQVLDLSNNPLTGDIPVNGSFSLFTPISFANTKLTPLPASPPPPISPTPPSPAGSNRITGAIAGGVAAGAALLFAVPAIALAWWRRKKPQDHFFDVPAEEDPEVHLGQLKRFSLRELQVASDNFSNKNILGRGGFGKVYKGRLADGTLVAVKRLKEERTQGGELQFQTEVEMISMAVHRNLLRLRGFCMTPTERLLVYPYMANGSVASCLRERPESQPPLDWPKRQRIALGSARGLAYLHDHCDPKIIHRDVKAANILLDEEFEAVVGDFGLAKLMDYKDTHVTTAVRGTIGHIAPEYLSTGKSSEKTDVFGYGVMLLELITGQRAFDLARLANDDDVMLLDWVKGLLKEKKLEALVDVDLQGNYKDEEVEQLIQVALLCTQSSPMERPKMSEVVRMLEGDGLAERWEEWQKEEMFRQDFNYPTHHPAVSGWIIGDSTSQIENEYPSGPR

T3: PUB25-FLAG (Arabidopsis thaliana) (UniProt Q9LT79)
T3 sequence: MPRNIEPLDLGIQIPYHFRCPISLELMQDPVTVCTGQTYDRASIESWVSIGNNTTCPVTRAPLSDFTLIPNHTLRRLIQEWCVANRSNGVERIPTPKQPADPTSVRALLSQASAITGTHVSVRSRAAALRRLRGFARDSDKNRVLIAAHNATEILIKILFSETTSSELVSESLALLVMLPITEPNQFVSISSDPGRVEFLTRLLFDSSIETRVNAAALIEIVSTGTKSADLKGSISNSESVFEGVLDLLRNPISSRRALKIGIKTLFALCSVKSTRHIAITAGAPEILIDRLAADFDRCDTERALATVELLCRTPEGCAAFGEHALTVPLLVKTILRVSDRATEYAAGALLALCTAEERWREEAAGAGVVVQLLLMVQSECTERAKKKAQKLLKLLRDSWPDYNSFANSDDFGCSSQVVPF

T4: PUB25-nYFP (Arabidopsis thaliana) (UniProt Q9LT79)
T4 sequence: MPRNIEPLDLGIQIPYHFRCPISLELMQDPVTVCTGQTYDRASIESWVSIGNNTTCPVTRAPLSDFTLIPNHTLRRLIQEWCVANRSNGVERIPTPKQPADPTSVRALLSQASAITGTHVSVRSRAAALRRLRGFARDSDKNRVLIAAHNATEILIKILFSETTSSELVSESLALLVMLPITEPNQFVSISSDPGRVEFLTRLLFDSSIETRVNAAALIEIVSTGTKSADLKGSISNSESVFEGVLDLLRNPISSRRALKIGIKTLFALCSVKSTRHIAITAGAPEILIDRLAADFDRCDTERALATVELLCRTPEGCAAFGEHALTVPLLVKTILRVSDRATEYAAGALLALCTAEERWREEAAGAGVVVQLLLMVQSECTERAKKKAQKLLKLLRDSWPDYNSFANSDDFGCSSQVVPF

T5: BIK1-nYFP (Arabidopsis thaliana) (UniProt O48814)
T5 sequence: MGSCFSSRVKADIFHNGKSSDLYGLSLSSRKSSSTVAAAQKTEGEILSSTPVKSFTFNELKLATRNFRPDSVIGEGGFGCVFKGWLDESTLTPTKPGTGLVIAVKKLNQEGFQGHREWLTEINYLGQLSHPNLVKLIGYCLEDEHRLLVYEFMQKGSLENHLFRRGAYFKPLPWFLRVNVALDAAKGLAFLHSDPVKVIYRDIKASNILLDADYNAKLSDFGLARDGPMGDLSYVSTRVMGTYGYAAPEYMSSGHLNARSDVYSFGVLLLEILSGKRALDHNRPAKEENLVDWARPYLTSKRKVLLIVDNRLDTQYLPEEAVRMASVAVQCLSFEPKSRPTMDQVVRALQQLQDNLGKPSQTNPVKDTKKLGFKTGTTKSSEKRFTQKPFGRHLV

T6: PBL13-nYFP (Arabidopsis thaliana) (UniProt F4JZW1)
T6 sequence: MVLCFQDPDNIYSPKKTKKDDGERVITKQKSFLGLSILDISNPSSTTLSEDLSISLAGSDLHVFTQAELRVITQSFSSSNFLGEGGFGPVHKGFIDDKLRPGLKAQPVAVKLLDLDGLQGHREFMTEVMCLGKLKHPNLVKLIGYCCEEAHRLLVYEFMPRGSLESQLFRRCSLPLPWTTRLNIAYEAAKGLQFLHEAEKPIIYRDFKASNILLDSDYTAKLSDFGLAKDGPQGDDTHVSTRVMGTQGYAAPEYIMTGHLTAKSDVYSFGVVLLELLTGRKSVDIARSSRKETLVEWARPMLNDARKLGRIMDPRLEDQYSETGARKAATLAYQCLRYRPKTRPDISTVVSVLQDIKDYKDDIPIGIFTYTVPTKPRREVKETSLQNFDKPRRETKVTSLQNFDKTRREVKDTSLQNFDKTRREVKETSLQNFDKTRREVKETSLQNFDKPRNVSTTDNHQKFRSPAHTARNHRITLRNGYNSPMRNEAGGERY

T7: PUB39-nYFP (Arabidopsis thaliana) (UniProt Q9STT1)
T7 sequence: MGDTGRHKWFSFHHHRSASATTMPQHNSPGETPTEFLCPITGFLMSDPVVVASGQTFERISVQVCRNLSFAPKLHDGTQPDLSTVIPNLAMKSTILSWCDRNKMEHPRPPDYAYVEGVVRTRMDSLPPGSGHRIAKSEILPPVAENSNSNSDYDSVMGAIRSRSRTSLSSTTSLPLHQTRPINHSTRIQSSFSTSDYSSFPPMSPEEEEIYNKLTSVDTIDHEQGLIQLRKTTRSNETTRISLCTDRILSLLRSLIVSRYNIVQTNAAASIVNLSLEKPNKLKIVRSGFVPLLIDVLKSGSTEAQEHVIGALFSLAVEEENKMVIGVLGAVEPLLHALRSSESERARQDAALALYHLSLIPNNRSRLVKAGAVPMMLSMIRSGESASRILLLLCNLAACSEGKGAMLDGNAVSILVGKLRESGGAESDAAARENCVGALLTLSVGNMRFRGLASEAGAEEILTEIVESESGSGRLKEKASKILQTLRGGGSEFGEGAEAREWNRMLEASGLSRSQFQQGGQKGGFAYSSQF


Key:
[1] = target: T1, BIK1-FLAG (Arabidopsis thaliana); experiment: co-IP; stable transgenic Arabidopsis seedlings, with or without 5 uM flg22 for 30 min; BIK1-FLAG immunoprecipitated with anti-FLAG
[2] = target: T2, BAK1-FLAG (Arabidopsis thaliana); experiment: co-IP; Arabidopsis protoplasts co-transfected with pHBT plasmids, 10 h; with or without 2.5 uM flg22 for 30 min (some with MG132; Col-0, bak1 or rglg1 rglg2 protoplasts); IP with anti-FLAG antibodies and protein G agarose, 4 C; 10 mM HEPES pH 7.5, 100 mM NaCl, 0.5% Triton X-100
[3] = target: T1, BIK1-FLAG (Arabidopsis thaliana); experiment: as above
[4] = target: T3, PUB25-FLAG (Arabidopsis thaliana); experiment: as above
[5] = target: T4, PUB25-nYFP (Arabidopsis thaliana); experiment: split reporter; BiFC: nYFP and cYFP fusions transfected into Arabidopsis protoplasts, confocal microscopy
[6] = target: T5, BIK1-nYFP (Arabidopsis thaliana); experiment: as above
[7] = target: T6, PBL13-nYFP (Arabidopsis thaliana); experiment: as above
[8] = target: T7, PUB39-nYFP (Arabidopsis thaliana); experiment: as above

Binder | binding [1] | binding [2] | binding [3] | binding [4] | binding [5] | binding [6] | binding [7] | binding [8]
RGLG1-HA (protein, UniProt Q9SS90 1-489) MGGGNSKEESSSPSSSSWASHQSYPQYGPDSYNYPPPPTYAPAPSPAPAPAPVPAPSPASSYGPQYSQEGYASQPNNPPPPTYAPAPSPASSYGHQYSQEGYASAASQPNYPPPPSQSQVADRKKFDRRYSKISDNYSSLLQVSEALGRAGLESSNLIVGIDFTKSNEWTGAKSFNRKSLHHLSNTPNPYEQAITIIGRTLAAFDEDNLIPCYGFGDASTHDQDVFSFYPEGRFCNGFEEVLARYREIVPQLKLAGPTSFAPIIEMAMTVVEQSSGQYHVLVIIADGQVTRSVDTEHGRLSPQEQKTVDAIVKASTLPLSIVLVGVGDGPWDMMQEFDDNIPARAFDNFQFVNFTEIMSKNKDQSRKETEFALSALMEIPPQYKATIELNLLGVRNGNIPQRIPLPPPVQSGSSFSSSRIPNFEPSVPPYPFESKQMSSADDIQLCPICLSNPKNMAFGCGHQTCCECGPDLKVCPICRAPIQTRIKLY | binds | binds | binds | binds |  |  |  | 
RGLG1-cYFP (protein, UniProt Q9SS90 1-489) MGGGNSKEESSSPSSSSWASHQSYPQYGPDSYNYPPPPTYAPAPSPAPAPAPVPAPSPASSYGPQYSQEGYASQPNNPPPPTYAPAPSPASSYGHQYSQEGYASAASQPNYPPPPSQSQVADRKKFDRRYSKISDNYSSLLQVSEALGRAGLESSNLIVGIDFTKSNEWTGAKSFNRKSLHHLSNTPNPYEQAITIIGRTLAAFDEDNLIPCYGFGDASTHDQDVFSFYPEGRFCNGFEEVLARYREIVPQLKLAGPTSFAPIIEMAMTVVEQSSGQYHVLVIIADGQVTRSVDTEHGRLSPQEQKTVDAIVKASTLPLSIVLVGVGDGPWDMMQEFDDNIPARAFDNFQFVNFTEIMSKNKDQSRKETEFALSALMEIPPQYKATIELNLLGVRNGNIPQRIPLPPPVQSGSSFSSSRIPNFEPSVPPYPFESKQMSSADDIQLCPICLSNPKNMAFGCGHQTCCECGPDLKVCPICRAPIQTRIKLY |  |  |  |  | binds | binds | no binding | no binding
